These are yes or no findings as the source states them, for the method shown. Some entries that bind do so weakly or less than the wild type.
Target: non-linked human IL-23 (p19 and p40 subunits) with the N222Q variant of p40, as used for the crystal structure (human) (UniProt P29460)
Assay: X-ray crystallography of the complex

Amino acid sequences for entries named in this document (tags omitted). A change or cut given only in a name is not applied to a line headed by its entry.
UniProt P29460: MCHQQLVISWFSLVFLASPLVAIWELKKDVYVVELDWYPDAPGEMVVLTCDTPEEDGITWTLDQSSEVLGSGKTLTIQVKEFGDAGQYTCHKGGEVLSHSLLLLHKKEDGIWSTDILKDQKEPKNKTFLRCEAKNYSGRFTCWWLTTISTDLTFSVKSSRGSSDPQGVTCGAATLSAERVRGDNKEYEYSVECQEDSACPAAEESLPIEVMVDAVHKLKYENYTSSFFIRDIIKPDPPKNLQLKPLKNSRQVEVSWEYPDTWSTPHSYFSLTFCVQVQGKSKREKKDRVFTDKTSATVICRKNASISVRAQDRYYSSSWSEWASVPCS

binding: binds
B1: Fab fragment of the chimeric form of antibody 7G10 (Fab, V domains shown)
VH: EVQLQQSGPELVKPGASVKMSCKASGYTFTSNVMHWVKQKPGQGLEWIGYINPYNDGTKYNEKFKGKATLTSDKSSSTAYMELSSLTSEDSAVYYCARNWDVAYWGQGTLVTVSA
VL: DIVMTQSPATLSVTPGDRVSLSCRASQSISDYLHWYRQKSHESPRLLIKYASQSISGIPSRFSGSGSGSDFTLSINSVEPEDVGVYYCQNGHSFPFTFGSGTKLEIKR

— patent US20130039916A1
